## Library screen at single concentrations

Amino acid sequences for entries named in this document (tags omitted). Residues count along the entry.
UniProt Q8IDJ8, 1-583: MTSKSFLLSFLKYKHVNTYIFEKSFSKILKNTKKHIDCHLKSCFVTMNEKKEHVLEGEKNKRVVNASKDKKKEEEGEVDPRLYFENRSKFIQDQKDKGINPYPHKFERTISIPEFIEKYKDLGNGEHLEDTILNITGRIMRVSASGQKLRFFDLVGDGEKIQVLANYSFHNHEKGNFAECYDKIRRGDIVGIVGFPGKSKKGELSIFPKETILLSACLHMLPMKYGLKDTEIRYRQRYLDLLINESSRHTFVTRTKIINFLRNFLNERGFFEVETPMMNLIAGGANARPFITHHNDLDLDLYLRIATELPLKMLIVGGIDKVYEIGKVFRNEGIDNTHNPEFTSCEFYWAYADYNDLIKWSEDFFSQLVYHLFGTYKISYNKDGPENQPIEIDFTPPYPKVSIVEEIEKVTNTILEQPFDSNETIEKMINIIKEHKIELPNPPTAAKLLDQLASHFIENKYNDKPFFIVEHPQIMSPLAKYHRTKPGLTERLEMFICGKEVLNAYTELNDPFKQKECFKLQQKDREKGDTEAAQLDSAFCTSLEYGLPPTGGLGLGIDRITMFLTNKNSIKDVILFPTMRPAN

The values are deposited in ChEMBL (CHEMBL3988442, “University of Dundee, Small-Polar-MMV Screening Library” (2021)).

A: 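Assay of Toxoplasma gondii numbers, read through their beta-galactosidase reporter with a colour substrate. Concentration: 10 µM. Higher reads as fewer parasites (inferred from which compounds were picked for retests). Of about 67,000 compounds tested this way, about 260 (0.38%) reached 50% or more in at least one test.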
B: 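Whole-parasite assay of Trypanosoma brucei over 72 hours; the read-out is not stated. Concentration: 30 µM. Higher reads as stronger inhibition (inferred: compounds with an IC50 in retests scored well above the rest). Values scatter widely below zero; nearly all retest evidence comes from the higher of the two concentrations used. Size under these conditions: about 64,000 compounds, about 940 of them at 50% or above in at least one test.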
C: 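Cell assay of Leishmania donovani living inside macrophages; the read-out is not stated. Concentration: 30 µM. Higher reads as stronger inhibition (inferred: compounds with an IC50 in retests scored well above the rest). Of about 69,000 compounds tested this way, about 1,000 (1.5%) reached 50% or more in at least one test.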
D: 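Enzyme assay of the cytosolic lysyl-tRNA synthetase in 384-well plates, read by luminescence. Target: Lysine-tRNA ligase, Plasmodium falciparum 3D7 (UniProt Q8IDJ8). Tested at 30 µM. Higher reads as stronger inhibition, judged from the few compounds that gave an IC50. About 69,000 compounds were tested under these conditions; 0.071% (about 49) showed 50% or more at least once.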

The filed quantity is “Percent Effect” (%).
The controls that fix the scale are not given in the record; negative values are as filed.
Compounds were drawn at random from those tested, without regard to their results.
Two or more numbers in one place are separate tests of the same structure; such repeats can differ widely.
A dash means the value is not listed here; it may have been measured.

| SMILES | A | B | C | D |
|---|---|---|---|---|
| `O=C(O)C(F)(F)F.[H][C@]12CCCN(Cc3ccsc3)[C@@]1([H])CN(S(C)(=O)=O)C2` | 2.205% | -73.5% | 3.281% & -3.103% | - |
| `CCc1cnc(C)nc1NCCC(=O)N1CCC(C)CC1` | 2.712% | -45.05% | -25.46% | 4.518% |
| `O=C(O)C(F)(F)F.O=C(O)C(F)(F)F.[H][C@]12C[C@@H](CN3CCCC3)N(c3nccs3)[C@@]1([H])CCN(C(C)=O)C2` | 5.311% | -1.804% | 10.37% | - |
| `CC(C)=CCC/C(C)=C/CN1CCN(C)C2(CCNC(=O)CC2)C1` (stereo not drawn) | -6.805% | - | 28.29% | -4.167% |
| `O=C(CCNS(=O)(=O)c1ccc(Cl)cc1)NCc1ccoc1` | 4.884% | -4.817% | 6.86% | 8.12% |
| `COC1COC2(CCN(CC3CCOCC3)CC2)C1.O=C(O)C(F)(F)F` (stereo not drawn) | 3.65% | -5.703% | -2.911% | - |
| `Cc1nc(N(C)C)ncc1C(=O)NCCc1csc(-c2cnccn2)n1` | 3.127% | 2.461% | 16.02% | 21.42% |
| `CCc1nc(C2CCCN2C(=O)c2ncoc2CC)no1` (stereo not drawn) | -17.37% | -17.33% | 7.438% | 0.6095% |
| `Cc1csc(NC(=O)C2CSCCC(=O)N2)n1` (stereo not drawn) | 12.61% | 17.49% | 15.5% & 1.374% | -4.448% |
| `Cc1c[nH]c(C2CCCN2C(=O)CCc2c(C)n[nH]c2C)n1` (stereo not drawn) | -23.97% | 4.677% | 1.098% | 0.6976% |
| `CCCc1n[nH]c(C2CN(CCCS(=O)(=O)N(C)C)CCO2)n1` (stereo not drawn) | 6.852% | 0.3513% | 9.28% | -0.4507% |
| `O=C1NC2(CCN(Cc3ccsc3)CC2)CC1c1ccncc1` (stereo not drawn) | - | - | - | 4.397% |
| `Cc1cccc(C(=O)N2CCCCC2c2ccc(CN(C)C)cc2)n1` (stereo not drawn) | -8.15% | -12.79% | 23.06% | 1.824% |
| `CCCc1n[nH]c(C2CN(CCS(=O)(=O)CC)CCO2)n1` (stereo not drawn) | -5.648% | -18.2% | 28.12% | -0.006727% |
| `CC(C)c1nnc(NC(=O)NCc2ccnc(N(C)C)c2)s1` | 0.5062% | 11.69% | 13.34% | 6.823% |
| `CCOc1ccc(-n2nnc(C(=O)O)c2-c2ccncc2)cc1` | 1.559% | -14.43% | -2.073% | 6.883% |
| `CSCCN1CCC(NC(=O)OC(C)(C)C)CC1` | -0.7992% | -0.03324% | 29.61% | 0.8818% |
| `O=c1oc(-c2ccc(F)cc2)nn1CC1CCOC1` (stereo not drawn) | -0.3277% | -42.57% | -6.642% | -2.805% |
| `COCC(=O)N(C)Cc1ccc(Cl)c(Cl)c1` | -2.765% | 44.76% | 5.889% | -0.6384% |
| `COCC(=O)N1CCCC2(CCN(c3ccsc3)C2=O)C1` (stereo not drawn) | 0.4992% | 1.003% | -6.325% | -9.569% |
| `CN(Cc1cnn(C)c1)C(=O)CCC(=O)c1ccc2c(c1)OCCO2` | 8.097% | -28.4% | 24.42% | 0.3564% |
| `Cc1ccc(CN2CC[C@H]3C(=O)N(Cc4cccnc4)CCO[C@H]3C2)o1` | - | - | - | -0.7895% |
| `CCN(Cc1cnn(C)c1)C[C@H]1CC[C@@H](Cc2ccc(CO)cc2)O1` | 6.548% | -36.86% | -2.531% | 3.021% |
| `Cc1ccc(-c2cc(C(=O)NCCCc3csc(N)n3)[nH]n2)o1` | 16.09% | 4.883% | -46.01% | -1.077% |
| `O=C(CCCNCc1ccccc1)N1CCCn2cncc2C1` | -41.17% | 27.01% | 0.6923% | 1.729% |
| `COc1cc(C(=O)N(Cc2ccc(F)cc2)C2CC2)cc2c1OCCO2` | 2.262% | 16.52% | 14.84% | 11.8% |
| `Cc1cccc(CN2CCc3c(CNC(=O)CC#N)nn(C)c3C2)n1.O=C(O)C(F)(F)F` | -3.711% | - | 12.25% | - |
| `Cc1nc(N2CCCC2)nc2c1CCN(C(=O)CC1CCCC1)CC2` | 15.05% | -22.42% | 14.42% | -2.555% |
| `COC(=O)c1ccc(Cn2nc(C)cc2C)c(F)c1` | -1.766% | -18.38% | 4.895% | 2.273% |
| `CNS(=O)(=O)c1ccc(C(=O)N2CCCC2c2ccccc2C)o1` (stereo not drawn) | -7.933% | -12.96% | 17.32% | 0.3174% |
| `O=C(c1ccno1)N1CCC2(CC1)C(=O)N(CC1CC1)c1ccccc12` | 2.429% | -4.734% | 21.05% | -1.095% |
| `O=C(N1CCc2ccccc2CC1)C1(O)Cc2ccccc2C1` | -16.88% | 2.811% | -33.83% | 5.139% |
| `Cl.O=C1N(Cc2ccc(Cl)cc2)CCC12CCCNC2` (stereo not drawn) | -3.809% | -3.629% | 22.03% | - |
| `Cc1cccc(CO[C@@H]2C[C@H]3CN(C(=O)c4cnccn4)CCN3C2)n1` | - | - | - | 5.517% |
| `CN1CCCC(c2ccnc(C(=O)NC3CC3)c2)C1` (stereo not drawn) | -4.548% | -4.506% | 12.43% & 23.99% | 0.6528% |
| `O=C(c1ccc2c(c1)OCCO2)N1CCCC(n2ccnc2)C1` (stereo not drawn) | -12.88% | 12.97% | 25.55% | 0.3296% |
| `Cc1ccnc(NC(=O)c2cnc(C3CCCNC3)cn2)c1` (stereo not drawn) | -4.985% | 31.8% | 18.14% | -0.9533% |
| `Cc1cnc(CN2CCOC(Cn3nc(C)nc3C)C2)cn1` (stereo not drawn) | - | -30.25% | 7.21% | 9.919% |
| `COCC(=O)N1CCN(C(=O)C2(c3ccc(C)c(OC)c3)CC2)CC1` | 5.312% | -1.151% | -8.29% | 0.6876% |
| `CN1CC(c2cc(O)nc(NCc3ccc(Cl)cc3)n2)CC1=O` (stereo not drawn) | 1.386% | 2.884% | 6.908% | 5.026% |
| `CN(C(=O)CNc1ccc(C#N)cc1)C1CCN(c2ccccn2)CC1` | -2.401% | -3.934% | 16.06% | -0.5823% |
| `[H][C@@]12CN(C3CCCCC3)C(=O)N1CCN(S(C)(=O)=O)C2` | -2.454% | -14.24% | -8.214% | - |
| `CCC(O)CN1CCN(C(=O)c2cccn2Cc2ccccc2)CC1` (stereo not drawn) | - | 24.2% | 13.25% | 3.994% |
| `CC1CN(C(=O)NCc2cccc(C#N)c2)CCN1CC(F)(F)F` (stereo not drawn) | -11.8% | -33.55% | 31.98% | 5.823% |
| `Cc1ccc(CN2CC3(CCN(C(=O)c4cccnc4)C3)C2)o1` | - | - | - | 2.812% |
| `CNC(=O)[C@@H]1C[C@@H](n2cc(-c3ccc(CN4CC=CC4)cc3)nn2)CN1` | 6.791% | -26.9% | 2.285% | 1.001% |
| `O=C(O)C(F)(F)F.[H][C@]12CCC[C@@]1(COCc1csc(C)n1)CN(CC1CCOCC1)C2` | -0.5879% | -1.258% | 17.29% | - |
| `COCc1cccc(NC(=O)NCCCN(C)S(C)(=O)=O)c1` | 6.999% | -34.42% | -0.4108% | 5.524% |
| `Cc1cc(C)n(CCCn2cncc2-c2ccc3c(c2)CC(C)N3C)n1` (stereo not drawn) | - | - | - | 1.898% |
| `Cc1cc(C(F)(F)F)cc(N2CCC3(CCC(=O)N(CCO)C3)CC2)n1` | -9.905% | -9.039% | -25.18% | 8.729% |
| `CC(C)SCC(=O)NCc1cc2n(n1)CCCN(C1CCCCC1)C2` | 6.52% | -6.203% | 64.6% | 0.8024% |
| `O=C(CC1CCN(CCc2ccccc2)CC1)N1CCCOCC1` | - | - | 21.72% | 1.874% |
| `O=C(C1=CC2(CCNCC2)c2ccccc21)N1CCCC1` | 2.564% | -13.07% | -18.75% | 5.672% |
| `Cc1nc(-c2nnc[nH]2)sc1C(=O)N1CCCC1CC(C)(C)C` (stereo not drawn) | -0.1248% | -29.95% | 20.73% | 10.69% |
| `O=C1CC(c2cccc(O)c2)c2c(c(C(=O)O)cn2-c2ccccc2)N1` (stereo not drawn) | 0.2391% | 55.14% | -13.45% | 13.94% |
| `Cc1nc(CN(C)Cc2csc(-c3cccs3)n2)co1` | -37.61% | -88.15% | 17.38% | -11.28% |
| `COc1cc(N2CCC3(CCCN3Cc3ccn(C)n3)CC2)ncn1.O=C(O)C(F)(F)F` | -22% | - | 11.05% | - |
| `COc1ccc2c(c1)CC(NCCCn1nc(C)nc1C)CC2` (stereo not drawn) | -10.86% | 5.868% | 36.67% | 2.352% |
| `Cc1cc(C[C@@H]2CCC[C@H]2NCc2ccc(C(F)(F)F)cc2)on1.O=C(O)CC(O)(CC(=O)O)C(=O)O` | 12.67% | 14.89% | 18.29% & 27.69% | - |
| `CC(C)c1nn(C)cc1CNCc1ccnc(N(C)C)c1` | - | - | - | 5.01% |
| `CC(c1cn2ccsc2n1)N1Cc2ncccc2C1=O` (stereo not drawn) | -21.77% | -9.716% | 6.768% | 4.951% |
| `O=C(O)C(F)(F)F.[H][C@]12CN(CCN3CCCC3)C(=O)[C@@]1([H])CN(c1ncccn1)C2` | 15.47% | -21.31% | 32.42% | - |

7 of the entries, repeated:

SMILES,A,B,C,D
O=C(CC1CCN(CCc2ccccc2)CC1)N1CCCOCC1,-,-,21.72%,1.874%
CSCCN1CCC(NC(=O)OC(C)(C)C)CC1,-0.7992%,-0.03324%,29.61%,0.8818%
O=C(O)C(F)(F)F.[H][C@]12CCCN(Cc3ccsc3)[C@@]1([H])CN(S(C)(=O)=O)C2,2.205%,-73.5%,3.281% & -3.103%,-
CN(Cc1cnn(C)c1)C(=O)CCC(=O)c1ccc2c(c1)OCCO2,8.097%,-28.4%,24.42%,0.3564%
Cc1cc(C(F)(F)F)cc(N2CCC3(CCC(=O)N(CCO)C3)CC2)n1,-9.905%,-9.039%,-25.18%,8.729%
O=c1oc(-c2ccc(F)cc2)nn1CC1CCOC1 (stereo not drawn),-0.3277%,-42.57%,-6.642%,-2.805%
O=C(O)C(F)(F)F.O=C(O)C(F)(F)F.[H][C@]12C[C@@H](CN3CCCC3)N(c3nccs3)[C@@]1([H])CCN(C(C)=O)C2,5.311%,-1.804%,10.37%,-